Test results as given in PMC9157009, “Protein proximity networks and functional evaluation of the casein kinase 1 gamma family reveal unique roles for CK1γ3 in WNT signaling” (The Journal of Biological Chemistry, 2022).

Chains of the proteins cited; added tags and fusions are not shown.
UniProt Q9HCP0: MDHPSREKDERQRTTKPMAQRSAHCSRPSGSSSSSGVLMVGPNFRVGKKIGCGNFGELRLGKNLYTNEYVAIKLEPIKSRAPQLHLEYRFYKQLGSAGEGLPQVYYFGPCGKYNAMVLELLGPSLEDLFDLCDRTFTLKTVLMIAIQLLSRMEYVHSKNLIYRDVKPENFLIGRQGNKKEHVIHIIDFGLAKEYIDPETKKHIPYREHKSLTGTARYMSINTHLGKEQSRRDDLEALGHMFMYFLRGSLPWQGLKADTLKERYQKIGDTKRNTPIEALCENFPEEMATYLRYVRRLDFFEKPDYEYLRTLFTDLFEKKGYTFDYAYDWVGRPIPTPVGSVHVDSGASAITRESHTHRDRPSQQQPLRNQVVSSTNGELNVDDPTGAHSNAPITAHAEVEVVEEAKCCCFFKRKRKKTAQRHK
UniProt Q9Y6M4: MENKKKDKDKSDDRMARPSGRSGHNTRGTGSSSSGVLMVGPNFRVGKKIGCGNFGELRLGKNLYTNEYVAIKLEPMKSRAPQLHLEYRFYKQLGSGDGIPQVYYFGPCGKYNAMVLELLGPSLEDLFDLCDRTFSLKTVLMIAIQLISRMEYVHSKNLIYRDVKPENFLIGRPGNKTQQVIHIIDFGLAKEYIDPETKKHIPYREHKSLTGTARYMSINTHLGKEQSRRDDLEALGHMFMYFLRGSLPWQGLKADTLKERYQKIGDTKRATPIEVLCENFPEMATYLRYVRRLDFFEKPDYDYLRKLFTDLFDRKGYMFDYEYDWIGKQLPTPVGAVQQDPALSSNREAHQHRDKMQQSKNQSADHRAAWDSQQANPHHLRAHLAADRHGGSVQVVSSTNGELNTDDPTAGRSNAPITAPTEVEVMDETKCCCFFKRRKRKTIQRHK
UniProt P78368: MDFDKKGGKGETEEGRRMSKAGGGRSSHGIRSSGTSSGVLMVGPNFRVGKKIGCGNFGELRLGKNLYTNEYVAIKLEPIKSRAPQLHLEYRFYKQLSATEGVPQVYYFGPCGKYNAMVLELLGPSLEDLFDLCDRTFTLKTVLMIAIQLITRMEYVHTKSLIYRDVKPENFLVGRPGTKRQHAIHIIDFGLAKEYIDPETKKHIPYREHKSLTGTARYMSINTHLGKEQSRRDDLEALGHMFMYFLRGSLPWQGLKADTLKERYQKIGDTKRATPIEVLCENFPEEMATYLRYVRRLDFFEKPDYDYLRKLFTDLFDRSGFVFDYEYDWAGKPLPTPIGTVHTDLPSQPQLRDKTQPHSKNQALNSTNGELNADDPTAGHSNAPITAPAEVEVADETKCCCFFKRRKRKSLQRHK

Key:
[1] = target: miniTurbo-V5-casein kinase 1γ1 (mT-V5-CK1γ1) (human) (UniProt Q9HCP0); test: proximity labelling; HEK293T cells stably expressing mT-V5-CK1γ, 50 mM biotin (Fig. 1F: biotin and WNT3A CM for 30 min), RIPA lysis, streptavidin affinity pulldown 1 h at 4 °C, Western blot of the biotinylated proteins
[2] = target: miniTurbo-V5-casein kinase 1γ3 (mT-V5-CK1γ3) (human) (UniProt Q9Y6M4); test: as above
[3] = target: miniTurbo-V5-casein kinase 1γ2 (mT-V5-CK1γ2) (human) (UniProt P78368); test: as above
[4] = target: miniTurbo-V5-casein kinase 1γ3 (mT-V5-CK1γ3) (human) (UniProt Q9Y6M4); test: proximity labelling; as the 30 min experiment but 120 min of biotin treatment; streptavidin affinity purification and mass spectrometry, SAINT scored separately

binding [1]	binding [2]	binding [3]	binding [4]	Binder
binds	binds	binds		prickle planar cell polarity protein 1 (protein, UniProt Q96MT3 1-831) MPLEMEPKMSKLAFGCQRSSTSDDDSGCALEEYAWVPPGLRPEQIQLYFACLPEEKVPYVNSPGEKHRIKQLLYQLPPHDNEVRYCQSLSEEEKKELQVFSAQRKKEALGRGTIKLLSRAVMHAVCEQCGLKINGGEVAVFASRAGPGVCWHPSCFVCFTCNELLVDLIYFYQDGKIHCGRHHAELLKPRCSACDEIIFADECTEAEGRHWHMKHFCCLECETVLGGQRYIMKDGRPFCCGCFESLYAEYCETCGEHIGVDHAQMTYDGQHWHATEACFSCAQCKASLLGCPFLPKQGQIYCSKTCSLGEDVHASDSSDSAFQSARSRDSRRSVRMGKSSRSADQCRQSLLLSPALNYKFPGLSGNADDTLSRKLDDLSLSRQGTSFASEEFWKGRVEQETPEDPEEWADHEDYMTQLLLKFGDKSLFQPQPNEMDIRASEHWISDNMVKSKTELKQNNQSLASKKYQSDMYWAQSQDGLGDSAYGSHPGPASSRRLQELELDHGASGYNHDETQWYEDSLECLSDLKPEQSVRDSMDSLALSNITGASVDGENKPRPSLYSLQNFEEMETEDCEKMSNMGTLNSSMLHRSAESLKSLSSELCPEKILPEEKPVHLPVLRRSKSQSRPQQVKFSDDVIDNGNYDIEIRQPPMSERTRRRVYNFEERGSRSHHHRRRRSRKSRSDNALNLVTERKYSPKDRLRLYTPDNYEKFIQNKSAREIQAYIQNADLYGQYAHATSDYGLQNPGMNRFLGLYGEDDDSWCSSSSSSSDSEEEGYFLGQPIPQPRPQRFAYYTDDLSSPPSALPTPQFGQRTTKSKKKKGHKGKNCIIS
			binds	FZD3 (receptor, UniProt Q9NPG1 23-666) HSLFSCEPITLRMCQDLPYNTTFMPNLLNHYDQQTAALAMEPFHPMVNLDCSRDFRPFLCALYAPICMEYGRVTLPCRRLCQRAYSECSKLMEMFGVPWPEDMECSRFPDCDEPYPRLVDLNLAGEPTEGAPVAVQRDYGFWCPRELKIDPDLGYSFLHVRDCSPPCPNMYFRREELSFARYFIGLISIICLSATLFTFLTFLIDVTRFRYPERPIIFYAVCYMMVSLIFFIGFLLEDRVACNASIPAQYKASTVTQGSHNKACTMLFMILYFFTMAGSVWWVILTITWFLAAVPKWGSEAIEKKALLFHASAWGIPGTLTIILLAMNKIEGDNISGVCFVGLYDVDALRYFVLAPLCLYVVVGVSLLLAGIISLNRVRIEIPLEKENQDKLVKFMIRIGVFSILYLVPLLVVIGCYFYEQAYRGIWETTWIQERCREYHIPCPYQVTQMSRPDLILFLMKYLMALIVGIPSVFWVGSKKTCFEWASFFHGRRKKEIVNESRQVLQEPDFAQSLLRDPNTPIIRKSRGTSTQGTSTHASSTQLAMVDDQRSKAGSIHSKVSSYHGSLHRSRDGRYTPCSYRGMEERLPHGSMSRLTDHSRHSSSHRLNEQSRHSSIRDLSNNPMTHITHGTSMNRVIEEDGTSA

These are yes or no findings as the source states them, for the method shown. In cells and extracts the contact can be indirect. A yes stands for co-enrichment or nearness to the bait. Other partners may have been found.
